Source: PubChem BioAssay AID504834 (National Center for Advancing Translational Sciences (NCATS), 2011)
The campaign covered roughly 320,000 compounds. About 22,000 (6.9%) were called active. The shares of active, inactive and inconclusive entries below differ from those in the screen. Calls follow the shape of the dose curve; as a rule, active = well fitted inhibition curve with a large enough effect; inconclusive = small, poorly fitted or top-dose-only effect, or another doubt; inactive = no such curve, though single readings can be large or run the other way. A potency beside an inconclusive call is a rough fit, not a confirmed value.

Test: Primary qHTS for delayed death inhibitors of the malarial parasite plastid, 96 hour incubation
Details: P. falciparum luciferase reporter growth; series mostly up to 28.7 µM
Method in brief: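 Infected RBCs, 2% Hct / 0.05% parasitemia final; luciferase-reporter P. falciparum; cpd 96 h, 37 C, 5% CO2; luciferase detection reagent; luminescence.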
% is scaled to controls: 0 for no effect and ±100 for the full control effect; potency is read from the fitted curve at half-maximal effect.

SMILES | Potency | activity change, negative = inhibition
O=C(O)CCCC/C=C(\c1ccccc1)c1cccnc1 | active: 1.69 µM | 
CCOC(=O)CNC(=O)CN1CCCN(S(=O)(=O)c2ccc(Br)s2)CC1 | inconclusive: 4.65 µM [inhibitor, partial curve] | 
C=CCNc1nc(-c2cccs2)c(CC(=O)O)s1 | inactive | 
COc1ccc(NC(=O)c2cccc3ccccc23)cc1 | inconclusive: 14.7 µM [inhibitor, single point] | 
O=[N+]([O-])c1cnn(-c2nc(-c3cccs3)cc(C(F)(F)F)n2)c1 | inconclusive: 14.7 µM [inhibitor, single point] | 
CCOc1cccc(CNCCc2c(C)[nH]c3ccc(OC(F)(F)F)cc23)c1O | inconclusive: 9.28 µM [inhibitor, partial curve, poor fit] | 
COc1cccc(N(C(C)=O)c2nc(C)cc(C)c2C#N)c1 | inconclusive: 8.28 µM [inhibitor, partial curve, poor fit] | 
Cc1cccn2c(=O)nc(SCC(=O)Nc3ccc4c(c3)OCO4)nc12 | inactive | 
O=C1CN(c2ccc(Cl)cc2)C2(CCCCC2)S1 | inactive | 
O=[N+]([O-])c1ccccc1/C=N/NC1=NS(=O)(=O)c2ccccc21 | inactive | 
Oc1ccc(-c2nc3ncccn3c2Nc2ccc3c(c2)OCCO3)cc1 | inconclusive: 0.0928 µM [inhibitor, full curve, poor fit] | 
CC(=O)c1ccc(S(=O)(=O)N2CCN(c3nn(C)c(=O)n(C)c3=O)CC2)cc1 | inactive | 
CCOC(=O)/C=c1\s/c(=C\c2ccc3cc(OC)ccc3c2)c(=O)n1CC(=O)NCc1ccc2c(c1)OCO2 | inconclusive: 2.62 µM [inhibitor, partial curve, poor fit] | 
COC(=O)[C@@H](NC(=O)c1ccccc1)[C@@H](C)O | inconclusive: 0.0033 µM [inhibitor, full curve, poor fit] | 
Cc1cc(C)c(C(=O)/C=C/c2ccc(C(C)C)cc2)c(=O)[nH]1 | inconclusive: 2.62 µM [inhibitor, full curve, poor fit] | 
N#Cc1ccc2c(c1)C[C@]1(c3ccsc3)Oc3c(c(=O)oc4ccc(F)cc34)C2O1 |  | inactive: 73.3% [at 5.75 µM]
O=C(NCCCn1ccnc1)/C(=C\c1cccnc1)NC(=O)c1ccccc1F | inactive | 
COc1cc(-c2nnc(COc3ccc(Cl)cc3C)o2)cc(OC)c1OC | inconclusive: 4.15 µM [inhibitor, partial curve, poor fit] | 
CCCCNC(=O)c1ccc(N2CCC3(CC2)OCCO3)c([N+](=O)[O-])c1 | inconclusive: 9.28 µM [inhibitor, partial curve] | 
C=CCSc1nnc(CNC(=O)c2ccc(Cl)cc2)n1CC |  | inactive: -26.3% [at 5.75 µM]
COc1ccc(NC(=O)CC2C(=O)N(C)C(=S)N2Cc2ccco2)cc1 (stereo not drawn) | inactive | 
Cc1ccc(NC(=O)c2sc3ncn(CC(=O)N4CCN(c5ccccn5)CC4)c(=O)c3c2C)cc1F | inconclusive: 1.65 µM [inhibitor, full curve, poor fit] | 
Cc1ccc2oc(-c3ccccc3)c(C(=O)O)c(=O)c2c1 | inactive | 

SMILES | Potency | activity change, negative = inhibition
CCOC(=O)c1cccc(C(=O)Nc2nc3ccc(OC)cc3s2)n1 | inactive | 
CCCCCC[n+]1c(-c2ccc(Cl)cc2Cl)csc1Nc1ccccc1 | inconclusive: 0.928 µM [inhibitor, partial curve, poor fit] | 
C=C(C)CSc1nc2sc3c(c2c(=O)n1-c1ccccc1)CCN(C)C3 | active: 0.828 µM | 
CCn1c(CCNC(=O)c2cccs2)nnc1SCC(=O)Nc1ccc(Cl)cc1 | inconclusive: 11.7 µM [inhibitor, single point] | 
Cc1ccc(NC(=O)C2C3C=CC4(O3)C2C(=O)N(CCCN2CCOCC2)C4C(=O)NC2CCCCC2)cc1Cl (stereo not drawn) | active: 2.08 µM | 
Cc1cc(C(=O)Nc2c(C)nn(Cc3ccc(Cl)cc3)c2C)no1 | inconclusive: 18.5 µM [inhibitor, single point] | 
O=C(N/N=C/c1ccc2c(c1)OCO2)c1cccc(NC(=O)c2ccccc2Cl)c1 | inactive | 
CCN(CC)c1ccc2cc(C(=O)Nc3cccnc3N3CCOCC3)c(=O)oc2c1 | inconclusive: 18.5 µM [inhibitor, single point] | 
CC1CN(C2CCN(C(=O)c3ccccc3)CC2)CC(C)O1 (stereo not drawn) | inactive | 
O=C1CCc2cc(S(=O)(=O)NCc3ccc(F)cc3)cc3c2N1CC3 | inactive | 
COc1ccc(C2C3=C(CC(C)(C)CC3=O)N(C)C3=C2C(=O)CC(C)(C)C3)cc1OC | active: 13.1 µM | 
COc1cccc(CCNC(=O)C2CCC(=O)N(Cc3cccc(OC)c3)C2)c1 (stereo not drawn) | inactive | 
CC(C)CCn1c2ccccc2c2cc(CC(N)=O)ccc21 | inconclusive: 6.57 µM [inhibitor, partial curve, poor fit] | 
CCc1nc(SCC(=O)c2ccccc2)c2c(=O)n(C)c(=O)n(C)c2n1 | inconclusive: 9.28 µM [inhibitor, single point] | 
CC1(C)Oc2ccc3ccc(=O)oc3c2/C(=C/Nc2ccccn2)C1=O | inconclusive: 18.5 µM [inhibitor, single point] | 
O=C(N/N=C/c1cc(Cl)ccc1O)c1ccccc1Br | inconclusive: 18.5 µM [inhibitor, single point] | 
O=C(Cn1nnc(-c2cccc(C(F)(F)F)c2)n1)N1CCOCC1 | inactive | 
Cn1nc(C(=O)N2CCN(c3cccc(Cl)c3)CC2)c2c1-c1ccccc1S(=O)(=O)C2 | inconclusive: 3.7 µM [inhibitor, partial curve] | 
CCN(CC)CCC(=O)N1c2ccccc2Sc2ccc(NC(=O)OC)cc21 | inconclusive: 18.5 µM [inhibitor, single point] | 
Cn1c(=O)c(N)c2c3c(c(Br)ccc31)C(=O)c1ccccc1-2 | inconclusive: 0.0738 µM [inhibitor, full curve, poor fit] | 
O=C(Nc1ccccc1)Nc1nncs1 | inactive | 
COc1ccc(CC(=O)NC(C)c2nnc(SCC(=O)c3ccc(OC)cc3)n2C)cc1 (stereo not drawn) | inconclusive: 7.38 µM [inhibitor, partial curve] | 
COC(=O)CS(=O)(=O)c1ccc2c(c1)CC(=O)N2 | inactive | 

SMILES | Potency | activity change, negative = inhibition
CCC1(c2ccc(OC)cc2)NC(=O)N(CC(=O)c2ccc3c(c2)OCCO3)C1=O (stereo not drawn) | inconclusive: 13.1 µM [inhibitor, single point] | 
CC(=O)Nc1ccc2nc(NC(=O)COc3ccc([N+](=O)[O-])cc3)sc2c1 | inactive | 
CCOc1ccc(S(=O)(=O)N(C)CC(=O)NCc2ccco2)cc1 | inconclusive: 18.5 µM [inhibitor, partial curve, poor fit] | 
Cc1ccc2nc(SCC(=O)c3ccc(O)cc3O)[nH]c2c1 | inconclusive: 4.15 µM [inhibitor, partial curve, poor fit] | 
O=C(NN1C(=O)C2C3C=CC(C3)C2C1=O)C(O)c1ccccc1 (stereo not drawn) | inconclusive: 9.28 µM [inhibitor, single point] | 
CCC(c1nnnn1Cc1ccco1)N1CCN(C(=O)c2ccco2)CC1 (stereo not drawn) | inconclusive: 0.185 µM [inhibitor, full curve, poor fit] | 
Cc1cc(C)n(C(=O)CCCn2cc([N+](=O)[O-])cn2)n1 | inconclusive: 18.5 µM [inhibitor, single point] | 
Cc1ccc(NC(=S)NCc2ccccc2)cc1[N+](=O)[O-] | inconclusive: 3.29 µM [inhibitor, single point] | 
CCn1c(SCC(=O)Nc2ccccc2N2CCOCC2)nnc1-c1ccccc1O | inconclusive: 18.5 µM [inhibitor, single point] | 
CCS(=O)(=O)c1nc2ccccc2n1Cc1ccccc1Cl | active: 10.4 µM | 
CN(C)c1ccc(-c2n[nH]c(=S)n2-c2ccccc2)cc1 | inconclusive: 13.1 µM [inhibitor, single point] | 
O=C(Nc1cc(F)ccc1F)N1CCN(c2ccnc3cc(Cl)ccc23)CC1 | inconclusive: 5.22 µM [inhibitor, partial curve] | 
CCOC(=O)C1CCN(C2CCN(C(=O)c3oc4c(F)cccc4c3C)CC2)CC1 | inconclusive: 18.5 µM [inhibitor, single point] | 
O=c1cc(N2CCN(c3ccc(F)cc3)CC2)[nH]c(=O)n1C1CCCCC1 | inactive | 
Cc1sc(NC(=O)c2ccco2)c(C(c2cccnc2)N2CCN(C)CC2)c1C (stereo not drawn) | inconclusive: 4.15 µM [inhibitor, partial curve, poor fit] | 
O=C(CSc1nnc(NC(=O)c2ccccc2[N+](=O)[O-])s1)NCC1CCCO1 (stereo not drawn) | active: 13.1 µM | 
CCC(C)[C@H](NC(=O)OC(C)(C)C)c1nnc(SCc2c(C)[nH]c(=O)[nH]c2=O)o1 (stereo partly drawn) | inconclusive: 0.037 µM [inhibitor, full curve, poor fit] | 
Cc1nc(SC2CC(=O)N(c3ccccc3)C2=O)nc2c1CCCC2 (stereo not drawn) | inconclusive: 0.828 µM [inhibitor, full curve, poor fit] | 
C=CCN(CC=C)C(=O)c1ccc(OC2CCN(Cc3ccccn3)CC2)cc1 | inconclusive: 1.17 µM [inhibitor, full curve, poor fit] | 
CCC1S/C(=N/N=C/c2ccco2)NC1=O (stereo not drawn) | inactive | 
COc1ccc(S(=O)(=O)N(C(=O)c2ccncc2)c2ccc3oc4c(c3c2)CCCC4)cc1 | inconclusive: 14.7 µM [inhibitor, partial curve, poor fit] | 
CCOC(=O)C1CCN(c2nc(-c3ccc(Br)cc3)nc3ccccc23)CC1 | inconclusive: 11.7 µM [inhibitor, partial curve, poor fit] | 

Complete entries, quoted from the list.
`CCn1c(CCNC(=O)c2cccs2)nnc1SCC(=O)Nc1ccc(Cl)cc1` as listed: Potency: inconclusive: 11.7 µM [inhibitor, single point]
`COc1ccc(NC(=O)c2cccc3ccccc23)cc1` as listed: Potency: inconclusive: 14.7 µM [inhibitor, single point]
`CCN(CC)CCC(=O)N1c2ccccc2Sc2ccc(NC(=O)OC)cc21` as listed: Potency: inconclusive: 18.5 µM [inhibitor, single point]
